Source: patent US20130053407A1, “PYRROLO [3,2-D] PYRIMIDIN-3-YL DERIVATIVES USED AS ACTIVATORS OF AMPK” (GlaxoSmithKline LLC, priority 2010, published 2013)
Some entries share one result that the patent states for a list of compounds.

Test system: Human recombinant AMPK
Assay: AMPK Enzymatic Assay (Z'Lyte FRET)
Assay type: biochemical
Conditions: AMPK activation, ATP 100 μM, peptide 2 μM, means of at least 2 independent experiments
Procedure: Human recombinant AMPK (Invitrogen #PV4673 & #PV4675) is used in a FRET assay format (Z'Lyte—Invitrogen). Assay conditions are as follow: ATP 100 μM, peptide (Invitrogen #PR8650) 2 μM, 1% final DMSO in Z'Lyte kinase buffer. Reaction is initiated by addition of 0.2-0.8 ng of AMPK and incubated for 1-hour @ 30° C. A further 1-hour incubation @ 30° C. with the development reagent (Invitrogen #PR5194) is performed. FRET signal is then measured and converted to “% peptide phosphorylation” according to Z′Lyte given calculation procedure. Evaluation of compounds is carried out using concentration-response curves. Final data are expressed in “% activation” calculating the ratio of “% peptide phosphorylation” between compound-condition and basal-condition. […] All data are means of at least 2 independent experiments.

Compound | pEC50
COc1cccc(-c2ccc(-n3c(Cl)cc4[nH]c(=O)n(-c5c(Cl)cccc5Cl)c(=O)c43)cc2)c1O [Example 8, 6-Chloro-3-(2,6-dichlorophenyl)-5-[2′-hydroxy-3′-(methyloxy)-4-biphenylyl]-1H-pyrrolo[3,2-d]pyrimidine-2,4(3H,5H)-dione] | greater than 5.5
COc1cccc(-c2ccc(-n3c(Cl)cc4[nH]c(=O)n(-c5ccc(C(=O)O)cc5)c(=O)c43)cc2)c1O [Example 63, 4-{6-Chloro-5-[2′-hydroxy-3′-(methyloxy)-4-biphenylyl]-2,4-dioxo-1,2,4,5-tetrahydro-3H-pyrrolo[3,2-d]pyrimidin-3-yl}benzoic acid] | greater than 5.5
